Where “and” joins values, the source holds several entries; their conditions need not be identical. Equal values may be shown once. Square brackets hold non-standard residues; d marks the D form. * marks the point of attachment. 2Nal = N[C@@H](Cc1ccc2ccccc2c1)C(=O)O; Fmoc = O=C(OCC1c2ccccc2-c2ccccc21)*; 3Pal = N[C@@H](Cc1cccnc1)C(=O)O; αMeK = C[C@](N)(CCCCN)C(=O)O; Cbz = O=C(OCc1ccccc1)*; Boc = CC(C)(C)OC(=O)*; OtBu = CC(C)(C)O*; Sar = CNCC(=O)O

Here are results for 16 substances from US20240218014 (published 2024).

This data set is described as follows: general procedure: solution-phase peptide synthesis; EDCI/ethyl cyanoglyoxylate-2-oxime; EDCI/HOAt; DIC/Oxyma B; PyAOP/DIPEA. The conditions noted are these: for crude HPLC purity / final HPLC purity: UPLC.
Where [1] appears, read: late stage modification step, one disulfide bridge, sequence written open.

In the case of H-Glu(tBu)-Asn-3Pal-Sarc-NH2, under “late stage modification step”, the step yield stood at 94.4% yield and the “crude HPLC purity” value is listed as 98.0% UPLC purity.

“Ac-Pen-Asn-Thr-Trp(7Me)-Lys(Ac)-Pen-Tyr(2-ea)-2Nal-αMe-Lys-Lys(Ac)-Asn-D-Leu-NH2 (S—S, 1-6)”: under “late stage modification step”, the “crude HPLC purity” value is recorded as 92.3%. For the same substance, under “purification step, HCl salt”, the step yield was found to be 78.8% and the “final HPLC purity” value was determined as 95.8%. Where the note is “purification step, acetate”, the “final HPLC purity” value is 96.9% and the step yield stood at 98.0%.

For the substance “H-2Nal-Gly(THP)-Glu(tBu)-Asn-3Pal-Sarc-NH2”, under “late stage modification step”, the step yield was determined as 99.3% yield and the “crude HPLC purity” value worked out at 99.2% HPLC purity.

As for Cbz-Glu(tBu)-Asn-3Pal-Sarc-NH2, under “coupling step”, the step yield is 77.5% yield and the “final HPLC purity” value was found to be 100% UPLC purity.

On to Fmoc-[2Nal][αMeK](Boc)K(Ac)N[dL]-NH2, for which the step yield entry (coupling step) is recorded as “Yield 77%”.

Take “Ac-Pen-Asn-Thr(tBu)-Trp(7Me)-Lys(Ac)-Pen-Tyr(2-Boc-ea)-2Nal-Gly(THP)-Glu(tBu)-Asn-3Pal-Sarc-NH2”: under “coupling step, run 1”, the “final HPLC purity” value was 99.1% UPLC purity and 99.3% UPLC purity; the step yield was 37.9% yield and 51.4% yield.

Take “Fmoc-Gln(Trt)-Thr(tBu)-Trp-Gln(Trt)-Cys-OMe-((S)-4-Abu-D-Arg(Pbf)-Ac)-OAll”: where the note is “coupling step”, the step yield was determined as 101.4% and the “crude HPLC purity” value came out at 81.5%.

For “Ac-Pen(Trt)-Asn-Thr(tBu)-Trp(7Me)-Lys(Ac)-Pen(Acm)-Tyr(2-Boc-ea)-2Nal-Gly(THP)-Glu(tBu)-Asn-3Pal-Sarc-NH2”, the “final HPLC purity” value (coupling step) worked out at 92%. The substance further registered a step yield (coupling step, assay corrected) of 86%.

“H-2Nal-Gly(THP)-Glu(tBu)-Asn-3-3Pal-Sarc-NH2”: where the note is “late stage modification step”, the step yield was found to be 93% and the “final HPLC purity” value was 93.5%.

As to “Ac-Pen(Trt)-Asn-Thr(tBu)-Trp(7Me)-Lys(Ac)-Pen(acm)-Tyr(2-Boc-ea)-2Nal-αMe-Lys(Boc)-Lys(Ac)-Asn-D-Leu-NH2 (S—S, 1-6)”, under “coupling step”, the step yield turned out to be 100% and the “crude HPLC purity” value stood at 93.3%.

As to Cbz-E(OtBu)N[3Pal][Sar]-NH2, where the note is “coupling step”, the step yield was 71%, the “crude HPLC purity” value worked out at 98% and the “final HPLC purity” value was found to be 99%. The substance also yielded a step yield (coupling step, overall) of 55%.

Regarding H-[2Nal][αMeK](Boc)K(Ac)N[dL]-NH2, the step yield entry (coupling step) is reported as “Yield 96%”.

For the substance “Fmoc-Gln(Trt)-Thr(tBu)-Trp-Gln(Trt)-Cys-OMe-((S)-4-Abu-D-Arg(Pbf)-Ac)—OH”, for the setting “late stage modification step”, the step yield worked out at 97.2% and the “crude HPLC purity” value is on record as 84.6%.

On to “Ac-Pen-Asn-Thr-Trp(7Me)-Lys(Ac)-Pen-Tyr(2-ea)-2Nal-Gly(THP)-Glu-Asn-3Pal-Sarc-NH2”, for which, under setting [1], the “final HPLC purity” value is 97.8% UPLC purity and the step yield amounted to 84.4% yield.

Take “Ac-Pen-Asn-Thr-Trp(7Me)-Lys(Ac)-Pen-Tyr(2-ea)-2-Nal2Nal-Gly(THP)-Glu-Asn-3-Pal3Pal-Sarc-NH2”: under setting [1], the “final HPLC purity” value was determined as 95% and the step yield worked out at 89%.

H-E(OtBu)N[3Pal][Sar]-NH2: under “late stage modification step”, the step yield worked out at 93% and the “final HPLC purity” value is 96%.
